Experimental data: publication PMC10163288
The list shows a part of the results.

B1: il2ra_site2_3nfp_sap_20_mot_HHH_b1_01964_000000000_0001_19_36_H_._HHH_b2_06110_0001_0000100001_0000001_0_0001 (protein)
chain: SSSSDVVERAAEVALEVAAIAWRRNDEEVYLEVSRLFYRIQQEGDPELLEELEELLEELRSSSSS
B2: il2ra_site1_1z92_sap_16_mot_HHH_b2_06572_000000077_0001_1_17_H_._HHH_b2_02272_af2_0001_0000100011_0000001_0_0001_af2pred_0001_af2pred_1 (protein)
chain: DVEEEIERALRELGVPPEEIEAVKRDFRRALEAGIPPEQVLRVLIRAARREGNEELTEALELVLK
B3: il2ra_site2_2erj_normal_mot_HHH_b1_02968_000000142_0001_22_39_H_._HHH_b2_01127_af2_0001_0000200010_0000001_0 (protein)
chain: SSSSSDTEEEVEQILEEAREAYEKGDLERVYELAVEALRLASENRDEEAQKLVLEVAEKLSSSSS
B4: il2ra_site2_2erj_sap_21_mot_HHH_b1_02566_000000063_0001_42_58_H_._HHH_b1_01323_0001_0000100006_0000001_0_0001 (protein)
chain: SSSSSDLHELYKLAVRILALLAEGDEEEARELIEELEELAKRTDSENVKELVEFLKKKVNSSSSS
B5: il2ra_site2_2erj_normal_mot_HHH_b1_03107_000000098_0001_39_52_H_._HHH_b1_04663_0001_0001000032_0000001_0 (protein)
chain: SSSSDEEWRRIAELLAEALRLFKEGNPEEVRKILEEAHELAEEANSEELKRYVEFAHRDASSSSS
B6: il2ra_site1_3nfp_normal_mot_1cd86ef9f1587ae5d14d35bbbd8e7f1d_0001_1_000000087_0001_34_49_H_._HHH_b1_03653_af2_0001_0000200011_0000001_0 (protein)
chain: SSSSDEEAEELFKEIHERLEELLKRGDSHEAARLADEAIRELARLGDPELAQELLRRAFELSSSS
B7: il2ra_site1_2b5i_sap_13_mot_HHH_b2_06557_000000199_0001_42_56_H_._HHH_b1_06086_0001_0000100006_0000001_0_0001_af2pred_dldesign_0_af2pred (protein)
chain: SSSSSLTKEALEKFLEADRLRKAGKPEEAKRLLEEALRLAEKAKAATLAKAIRNALKDLESSSSS
B8: il2ra_site1_2b5i_sap_23_mot_4a280d29898c52388955dd985fe9baac_0001_af2_000000024_0001_35_51_H_._35d2dc24e2c4431f89e6f806b163ecf8_0001_0001_0000400035_0000001_0_0 … (protein)
chain: SFEELLARYEEKYKDDEVAIEFLNALRKLYEHTGNPELAIRSLLKLAKKAGDEKTVALAEELLEE
B9: il2ra_site1_1z92_normal_mot_HHH_b2_04965_af2_000000085_0001_3_17_H_._HHH_b1_08099_af2_0001_0000100007_0000001_0 (protein)
chain: SSSSSDFRELDRLVVELAEKFGLDHEQEHILLRVASRLLTKGVSEEEIEEILEEVAKELSSSSSS
B10: il2ra_site1_1z92_sap_13_mot_b4c6f5f17c500cb19b718c065e23fe7c_0001_1_000000266_0001_37_51_H_._a32f4d7c6847e2a44289f3a838988b97_0001_af2_0001_0000100002_0000001_0 … (protein)
chain: SSSSSSSRLELIEELLRALKEGDEELVRELLEELKRLAEETNTKSAKRMAEMVEEELGSSSSSSS
B11: il2ra_site1_1z92_normal_mot_HHH_b1_00108_af2_000000035_0001_38_51_H_._HHH_b1_06180_af2_0001_0000100008_0000001_0_af2pred_0001_af2pred (protein)
chain: SSSSSSDEFEEIDELYKQASKIKDPEERKEVLEEALELAERLGDESAQKDIRRYLRRISSSSSSS
B12: il2ra_site2_2erj_sap_16_mot_HHH_b1_00941_000000051_0001_45_58_H_._HHH_b2_03323_0001_0000600045_0000001_0_0001_af2pred_0001_1_af2pred_swapped (protein)
chain: SSSSSSSREEVEELLEEAKRIENLRRVLELLQEADKIASELDDEELLREIQKVFEELASSSSSSS
B13: il2ra_site2_2erj_normal_mot_HHH_b2_00732_af2_000000006_0001_23_40_H_._HHH_b1_01925_af2_0001_0000100002_0000001_0 (protein)
chain: SSSSDTAEENLEAIEEIVQELEENGNPEQARHYVKLAIKMARRAGDEEVVEELEKLLEELESSSS
B14: il2ra_site1_1z92_sap_15_mot_HHH_b1_08504_af2_000000168_0001_42_54_H_._HHH_b1_07766_0001_0000200005_0000001_1_0001_af2pred_0001_af2pred (protein)
chain: SSSSSSSEEVERVDELFREASHVSREEARKLLEEALEIAEEANDEREQKEIRHLLKAFSSSSSSS
B15: il2ra_site2_3nfp_sap_16_mot_HHH_b2_07129_000000128_0001_19_36_H_._HHH_b2_06957_af2_0001_0000400016_0000001_0_0001 (protein)
chain: SSSSDHEEEYLEAALELLKEAVKEGDEEAAREHTETARQAAEHARDEEILEALEELIEELESSSS
B16: il2ra_site1_2b5i_normal_mot_22370d59370c406a0c205a431f537cfa_0001_af2_000000141_0001_1_31_H_._HHH_b1_04252_af2_0001_0000200010_0000001_0_af2pred_dldesign_0_af2p … (protein)
chain: SSSSKELEARAAALVERLAEEYKLTLEQEKELERLAVELIYKGLSLEEIEEKLRELAEKLGSSSS
B17: il2ra_site1_2b5i_sap_18_mot_HHH_b1_06900_af2_000000048_0001_21_36_H_._HHH_b2_04242_0001_0000100001_0000001_0_0001_af2pred_dldesign_0_af2pred (protein)
chain: SSSSSLAKEALELFLEADKLFQAGKEEEAKKKLEEALELAKKAGNKSLVKAIESALEDLESSSSS
B18: il2ra_site1_2b5i_normal_mot_HHH_b1_02271_000000068_0001_1_16_H_._HHH_b1_04984_af2_0001_0000200014_0000001_0_af2pred_dldesign_0_af2pred (protein)
chain: SSSSSDVEAEVEELIRRARELAAAGKRREALELLEEAAKLLDAADMEELLDEVEALAKELSSSSS

target: il2ra, P01589; test: yeast display titration

Apparent Kd, inactive:
B1 > 940 nM
B2 no binding seen
B3 no binding seen
B4 no binding seen
B5 no binding seen
B6 no binding seen
B7 no binding seen
B8 no binding seen
B9 no binding seen
B10 no binding seen
B11 no binding seen
B12 no binding seen
B13 no binding seen
B14 no binding seen
B15 no binding seen
B16 no binding seen
B17 no binding seen
B18 no binding seen

Two consecutive entries already listed, for reference:
Apparent Kd, inactive:
B11 no binding seen
B12 no binding seen
